Reference: paper PMC8608904
No constants are given. Whether binding was seen depends on the method and setting. Binding seen in cells or lysates may run through a third protein.

By UniProt entry, the sequences of proteins in these tests, tags left out. Where a name states a change or a piece, a line headed by the entry shows the natural chain unless it says otherwise. Residues count along the entry.
UniProt Q8K0P3: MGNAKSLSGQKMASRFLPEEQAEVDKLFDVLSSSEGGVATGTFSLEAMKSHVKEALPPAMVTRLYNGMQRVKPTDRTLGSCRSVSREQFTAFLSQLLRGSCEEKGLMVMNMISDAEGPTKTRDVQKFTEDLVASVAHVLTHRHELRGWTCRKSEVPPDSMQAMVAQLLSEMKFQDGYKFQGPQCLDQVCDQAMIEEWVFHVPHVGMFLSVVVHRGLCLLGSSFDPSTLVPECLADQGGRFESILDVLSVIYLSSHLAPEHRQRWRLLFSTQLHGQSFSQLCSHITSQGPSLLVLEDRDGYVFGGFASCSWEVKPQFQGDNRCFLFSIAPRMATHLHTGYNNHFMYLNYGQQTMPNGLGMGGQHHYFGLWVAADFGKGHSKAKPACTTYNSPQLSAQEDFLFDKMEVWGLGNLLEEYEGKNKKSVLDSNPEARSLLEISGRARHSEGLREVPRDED
full-length recombinant Tldc1 (2–455): residues 2-455 of Q8K0P3
Tldc1 (235–410): residues 235-410 of Q8K0P3
UniProt Q91YH6: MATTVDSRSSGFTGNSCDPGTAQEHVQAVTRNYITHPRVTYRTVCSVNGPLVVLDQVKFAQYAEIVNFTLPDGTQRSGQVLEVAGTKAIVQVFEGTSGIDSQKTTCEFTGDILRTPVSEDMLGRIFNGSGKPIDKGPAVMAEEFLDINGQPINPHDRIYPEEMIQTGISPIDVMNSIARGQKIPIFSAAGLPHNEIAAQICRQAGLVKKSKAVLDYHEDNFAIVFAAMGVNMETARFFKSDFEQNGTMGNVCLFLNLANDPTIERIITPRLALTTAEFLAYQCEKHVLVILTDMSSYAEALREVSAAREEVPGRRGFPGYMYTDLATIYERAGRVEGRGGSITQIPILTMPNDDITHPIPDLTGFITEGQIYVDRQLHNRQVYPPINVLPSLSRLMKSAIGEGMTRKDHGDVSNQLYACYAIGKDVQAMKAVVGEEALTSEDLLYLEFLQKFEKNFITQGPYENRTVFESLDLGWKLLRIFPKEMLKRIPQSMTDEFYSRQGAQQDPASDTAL

Tests used:
Experiment in all cases: condition: approximately 14 pmol of GST-tagged protein on beads; pull-down; about 14 pmol purified GST-tagged bait on glutathione-Sepharose 4B beads, incubated with mouse kidney lysate (25 mM Tris-HCl pH 7.4, 150 mM NaCl, 5 mM EDTA, 1% Triton X-100); western blot with anti-B1; only the target purified
[1] = molecular target: T1, G896A mutant of the TLDc domain of Ncoa7 (775–943) (mouse) (UniProt Q6DFV7)
T1 sequence: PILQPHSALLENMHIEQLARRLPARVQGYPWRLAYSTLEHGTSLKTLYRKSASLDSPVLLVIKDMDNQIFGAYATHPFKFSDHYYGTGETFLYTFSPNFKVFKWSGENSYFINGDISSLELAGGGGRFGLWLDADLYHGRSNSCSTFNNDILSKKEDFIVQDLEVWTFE

Ncoa7 (593–774) (mouse) = molecular target: T2, Ncoa7 (593–774) (mouse) (UniProt Q6DFV7)
T2 sequence: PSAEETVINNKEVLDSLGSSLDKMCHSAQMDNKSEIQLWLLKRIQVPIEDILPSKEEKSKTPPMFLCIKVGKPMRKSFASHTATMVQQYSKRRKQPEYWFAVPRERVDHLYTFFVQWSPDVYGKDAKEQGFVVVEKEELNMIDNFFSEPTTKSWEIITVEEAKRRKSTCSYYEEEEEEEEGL

[2] = molecular target: T3, N-terminal Ncoa7 (2–353) (mouse) (UniProt Q6DFV7)
T3 sequence: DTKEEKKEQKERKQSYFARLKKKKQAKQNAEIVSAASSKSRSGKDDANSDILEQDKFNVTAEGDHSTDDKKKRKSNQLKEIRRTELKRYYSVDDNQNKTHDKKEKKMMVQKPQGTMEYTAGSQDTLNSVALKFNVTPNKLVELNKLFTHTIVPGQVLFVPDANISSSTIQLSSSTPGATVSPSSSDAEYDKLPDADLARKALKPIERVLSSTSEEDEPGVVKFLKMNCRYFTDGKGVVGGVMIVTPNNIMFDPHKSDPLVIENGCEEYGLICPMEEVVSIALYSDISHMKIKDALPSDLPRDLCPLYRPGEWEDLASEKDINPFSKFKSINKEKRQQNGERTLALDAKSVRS

[3] = molecular target: T4, middle Ncoa7 (354–592) (mouse) (UniProt Q6DFV7)
T4 sequence: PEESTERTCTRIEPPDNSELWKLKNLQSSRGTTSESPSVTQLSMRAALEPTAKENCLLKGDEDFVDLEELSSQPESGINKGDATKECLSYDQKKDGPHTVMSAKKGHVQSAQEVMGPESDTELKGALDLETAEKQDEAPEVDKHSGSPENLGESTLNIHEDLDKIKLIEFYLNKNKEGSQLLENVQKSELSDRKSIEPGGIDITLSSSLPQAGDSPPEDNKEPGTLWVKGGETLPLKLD

[4] = molecular target: T5, Tbc1d24 TLDc domain (336–561) (mouse) (UniProt Q3UUG6)
T5 sequence: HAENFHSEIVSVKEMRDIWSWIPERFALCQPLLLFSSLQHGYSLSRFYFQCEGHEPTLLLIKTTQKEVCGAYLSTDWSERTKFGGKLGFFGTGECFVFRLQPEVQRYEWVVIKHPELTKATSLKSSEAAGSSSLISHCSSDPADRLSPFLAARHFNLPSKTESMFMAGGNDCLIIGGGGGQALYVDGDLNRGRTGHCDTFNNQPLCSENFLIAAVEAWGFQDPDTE

Tldc1 (235–410) (mouse) = Tldc1 (235–410) (mouse) (UniProt Q8K0P3)
[5] = molecular target: T6, Tbc1d24 (336-446_496-556) (mouse) (UniProt Q3UUG6)
T6 sequence: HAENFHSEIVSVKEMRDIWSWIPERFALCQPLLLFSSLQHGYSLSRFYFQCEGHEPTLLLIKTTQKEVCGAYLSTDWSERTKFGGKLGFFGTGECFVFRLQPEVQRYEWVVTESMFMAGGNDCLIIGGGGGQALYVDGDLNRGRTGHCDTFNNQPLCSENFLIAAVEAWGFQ

[6] = molecular target: full-length recombinant Tldc1 (2–455) (mouse) (UniProt Q8K0P3)

Measured: binding

B1 subunit of V-ATPase (from UniProt Q91YH6 1-513)
no binding: all assays above
